Consider three molecules from article PMC3617232.

These are yes or no findings as the source states them, for the method shown. Binding seen in cells or lysates may run through a third protein. Binding calls can cover weak binding; strength is not graded here.

Experiment in all cases: co-IP; Xenopus laevis oocytes co-injected with 15 ng each mKCC3 (wild type or E289G) and rKCC2 cRNA, 3 days at 16 C; homogenate in 50 mM HEPES with protease inhibitors; anti-KCC3 or anti-KCC2 antibody overnight at 4 C, Protein A sepharose; Western blot for the other cotransporter; anti-GFP IgG as negative control
For orientation: A western blot detects proteins with antibodies after separation by electrophoresis.

The target in test [1] is T1, mouse KCC3-E289G mutant (mouse) (UniProt Q924N4).
T1 sequence: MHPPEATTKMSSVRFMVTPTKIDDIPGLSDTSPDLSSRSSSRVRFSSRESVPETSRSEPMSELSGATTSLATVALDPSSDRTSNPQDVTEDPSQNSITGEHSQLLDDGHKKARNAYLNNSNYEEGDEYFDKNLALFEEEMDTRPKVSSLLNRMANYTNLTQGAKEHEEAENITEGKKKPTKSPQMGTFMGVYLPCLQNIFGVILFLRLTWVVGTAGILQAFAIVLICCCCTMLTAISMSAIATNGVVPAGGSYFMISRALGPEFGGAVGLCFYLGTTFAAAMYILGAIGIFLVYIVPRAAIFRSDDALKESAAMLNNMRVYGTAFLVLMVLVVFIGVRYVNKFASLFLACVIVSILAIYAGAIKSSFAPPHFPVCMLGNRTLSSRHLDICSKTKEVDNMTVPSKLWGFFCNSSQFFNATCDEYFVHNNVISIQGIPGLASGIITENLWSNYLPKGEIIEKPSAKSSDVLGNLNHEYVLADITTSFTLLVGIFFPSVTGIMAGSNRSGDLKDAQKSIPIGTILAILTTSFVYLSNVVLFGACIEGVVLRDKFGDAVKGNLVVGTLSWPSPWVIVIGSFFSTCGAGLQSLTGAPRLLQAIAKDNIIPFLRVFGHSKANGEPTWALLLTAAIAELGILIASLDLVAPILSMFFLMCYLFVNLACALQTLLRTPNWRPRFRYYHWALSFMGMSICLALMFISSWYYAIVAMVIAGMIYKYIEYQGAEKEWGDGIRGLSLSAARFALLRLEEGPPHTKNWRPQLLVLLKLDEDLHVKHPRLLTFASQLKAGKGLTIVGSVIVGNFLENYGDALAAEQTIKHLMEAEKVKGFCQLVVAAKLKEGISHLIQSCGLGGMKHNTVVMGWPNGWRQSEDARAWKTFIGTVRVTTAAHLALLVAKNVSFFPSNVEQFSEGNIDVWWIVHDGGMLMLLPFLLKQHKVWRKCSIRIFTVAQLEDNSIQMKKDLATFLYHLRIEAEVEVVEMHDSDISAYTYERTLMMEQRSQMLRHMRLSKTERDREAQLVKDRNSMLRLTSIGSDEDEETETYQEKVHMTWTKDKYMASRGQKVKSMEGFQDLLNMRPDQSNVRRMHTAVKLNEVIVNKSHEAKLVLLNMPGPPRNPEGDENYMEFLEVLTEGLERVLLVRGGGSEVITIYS

Test [2] deals with T2, mouse K-Cl cotransporter-3 (KCC3a), wild type (mouse) (UniProt Q924N4).
T2 sequence: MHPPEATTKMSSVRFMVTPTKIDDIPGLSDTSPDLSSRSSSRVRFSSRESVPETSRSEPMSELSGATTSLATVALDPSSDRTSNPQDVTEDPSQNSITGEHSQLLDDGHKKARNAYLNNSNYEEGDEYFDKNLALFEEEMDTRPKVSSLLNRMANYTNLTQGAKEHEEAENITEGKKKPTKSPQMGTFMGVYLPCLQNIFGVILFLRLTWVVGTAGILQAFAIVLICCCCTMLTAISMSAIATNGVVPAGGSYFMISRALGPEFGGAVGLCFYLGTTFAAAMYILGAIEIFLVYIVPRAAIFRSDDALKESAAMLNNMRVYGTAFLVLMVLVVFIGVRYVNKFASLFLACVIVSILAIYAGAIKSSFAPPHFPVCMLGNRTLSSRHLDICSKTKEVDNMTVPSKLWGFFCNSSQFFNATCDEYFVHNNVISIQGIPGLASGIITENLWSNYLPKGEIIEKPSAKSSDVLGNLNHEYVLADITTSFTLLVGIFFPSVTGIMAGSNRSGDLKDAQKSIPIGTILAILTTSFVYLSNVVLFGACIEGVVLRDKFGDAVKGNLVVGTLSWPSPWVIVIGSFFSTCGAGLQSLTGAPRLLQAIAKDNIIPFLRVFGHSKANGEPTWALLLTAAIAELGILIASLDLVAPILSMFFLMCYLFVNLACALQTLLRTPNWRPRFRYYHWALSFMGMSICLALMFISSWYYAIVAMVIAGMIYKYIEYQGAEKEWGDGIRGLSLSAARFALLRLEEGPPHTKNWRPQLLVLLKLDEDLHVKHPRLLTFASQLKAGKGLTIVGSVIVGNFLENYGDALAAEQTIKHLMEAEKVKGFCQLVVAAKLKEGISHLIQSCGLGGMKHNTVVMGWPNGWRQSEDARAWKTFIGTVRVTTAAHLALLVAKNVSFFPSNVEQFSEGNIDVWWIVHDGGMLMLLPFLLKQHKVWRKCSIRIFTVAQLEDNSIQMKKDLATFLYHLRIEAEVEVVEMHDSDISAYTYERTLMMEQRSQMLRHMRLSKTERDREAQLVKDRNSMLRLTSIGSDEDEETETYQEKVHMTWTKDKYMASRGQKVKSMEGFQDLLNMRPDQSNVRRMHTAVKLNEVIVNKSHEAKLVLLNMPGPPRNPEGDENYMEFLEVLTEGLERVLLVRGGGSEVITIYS

For test [3], the target named is rat K-Cl cotransporter KCC2 (rat).

With rat K-Cl cotransporter KCC2, the binding entry in test [1] and in test [2] was “binds” in each case.

B1: mouse K-Cl cotransporter-3 (KCC3a), wild type (protein, UniProt Q924N4-1 1-1150)
chain: MHPPEATTKMSSVRFMVTPTKIDDIPGLSDTSPDLSSRSSSRVRFSSRESVPETSRSEPMSELSGATTSLATVALDPSSDRTSNPQDVTEDPSQNSITGEHSQLLDDGHKKARNAYLNNSNYEEGDEYFDKNLALFEEEMDTRPKVSSLLNRMANYTNLTQGAKEHEEAENITEGKKKPTKSPQMGTFMGVYLPCLQNIFGVILFLRLTWVVGTAGILQAFAIVLICCCCTMLTAISMSAIATNGVVPAGGSYFMISRALGPEFGGAVGLCFYLGTTFAAAMYILGAIEIFLVYIVPRAAIFRSDDALKESAAMLNNMRVYGTAFLVLMVLVVFIGVRYVNKFASLFLACVIVSILAIYAGAIKSSFAPPHFPVCMLGNRTLSSRHLDICSKTKEVDNMTVPSKLWGFFCNSSQFFNATCDEYFVHNNVISIQGIPGLASGIITENLWSNYLPKGEIIEKPSAKSSDVLGNLNHEYVLADITTSFTLLVGIFFPSVTGIMAGSNRSGDLKDAQKSIPIGTILAILTTSFVYLSNVVLFGACIEGVVLRDKFGDAVKGNLVVGTLSWPSPWVIVIGSFFSTCGAGLQSLTGAPRLLQAIAKDNIIPFLRVFGHSKANGEPTWALLLTAAIAELGILIASLDLVAPILSMFFLMCYLFVNLACALQTLLRTPNWRPRFRYYHWALSFMGMSICLALMFISSWYYAIVAMVIAGMIYKYIEYQGAEKEWGDGIRGLSLSAARFALLRLEEGPPHTKNWRPQLLVLLKLDEDLHVKHPRLLTFASQLKAGKGLTIVGSVIVGNFLENYGDALAAEQTIKHLMEAEKVKGFCQLVVAAKLKEGISHLIQSCGLGGMKHNTVVMGWPNGWRQSEDARAWKTFIGTVRVTTAAHLALLVAKNVSFFPSNVEQFSEGNIDVWWIVHDGGMLMLLPFLLKQHKVWRKCSIRIFTVAQLEDNSIQMKKDLATFLYHLRIEAEVEVVEMHDSDISAYTYERTLMMEQRSQMLRHMRLSKTERDREAQLVKDRNSMLRLTSIGSDEDEETETYQEKVHMTWTKDKYMASRGQKVKSMEGFQDLLNMRPDQSNVRRMHTAVKLNEVIVNKSHEAKLVLLNMPGPPRNPEGDENYMEFLEVLTEGLERVLLVRGGGSEVITIYS
With B1, the binding entry in test [3] is “binds”.

B2: mouse KCC3-E289G mutant (protein, UniProt Q924N4 1-1150)
chain: MHPPEATTKMSSVRFMVTPTKIDDIPGLSDTSPDLSSRSSSRVRFSSRESVPETSRSEPMSELSGATTSLATVALDPSSDRTSNPQDVTEDPSQNSITGEHSQLLDDGHKKARNAYLNNSNYEEGDEYFDKNLALFEEEMDTRPKVSSLLNRMANYTNLTQGAKEHEEAENITEGKKKPTKSPQMGTFMGVYLPCLQNIFGVILFLRLTWVVGTAGILQAFAIVLICCCCTMLTAISMSAIATNGVVPAGGSYFMISRALGPEFGGAVGLCFYLGTTFAAAMYILGAIGIFLVYIVPRAAIFRSDDALKESAAMLNNMRVYGTAFLVLMVLVVFIGVRYVNKFASLFLACVIVSILAIYAGAIKSSFAPPHFPVCMLGNRTLSSRHLDICSKTKEVDNMTVPSKLWGFFCNSSQFFNATCDEYFVHNNVISIQGIPGLASGIITENLWSNYLPKGEIIEKPSAKSSDVLGNLNHEYVLADITTSFTLLVGIFFPSVTGIMAGSNRSGDLKDAQKSIPIGTILAILTTSFVYLSNVVLFGACIEGVVLRDKFGDAVKGNLVVGTLSWPSPWVIVIGSFFSTCGAGLQSLTGAPRLLQAIAKDNIIPFLRVFGHSKANGEPTWALLLTAAIAELGILIASLDLVAPILSMFFLMCYLFVNLACALQTLLRTPNWRPRFRYYHWALSFMGMSICLALMFISSWYYAIVAMVIAGMIYKYIEYQGAEKEWGDGIRGLSLSAARFALLRLEEGPPHTKNWRPQLLVLLKLDEDLHVKHPRLLTFASQLKAGKGLTIVGSVIVGNFLENYGDALAAEQTIKHLMEAEKVKGFCQLVVAAKLKEGISHLIQSCGLGGMKHNTVVMGWPNGWRQSEDARAWKTFIGTVRVTTAAHLALLVAKNVSFFPSNVEQFSEGNIDVWWIVHDGGMLMLLPFLLKQHKVWRKCSIRIFTVAQLEDNSIQMKKDLATFLYHLRIEAEVEVVEMHDSDISAYTYERTLMMEQRSQMLRHMRLSKTERDREAQLVKDRNSMLRLTSIGSDEDEETETYQEKVHMTWTKDKYMASRGQKVKSMEGFQDLLNMRPDQSNVRRMHTAVKLNEVIVNKSHEAKLVLLNMPGPPRNPEGDENYMEFLEVLTEGLERVLLVRGGGSEVITIYS
In the case of B2, in test [3], the binding result was “binds”.
